# No constants are given. Whether binding was seen depends on the method and setting. Some results given as binding are weak or reduced against the parent protein; the word gives no strength. Where a sequence is shown, tags or fusion partners need not be part of it.
# Sequences of proteins named here, by UniProt entry; tags and fusion partners are left off. Residues count along the entry.
# UniProt P08581, residues 25-929: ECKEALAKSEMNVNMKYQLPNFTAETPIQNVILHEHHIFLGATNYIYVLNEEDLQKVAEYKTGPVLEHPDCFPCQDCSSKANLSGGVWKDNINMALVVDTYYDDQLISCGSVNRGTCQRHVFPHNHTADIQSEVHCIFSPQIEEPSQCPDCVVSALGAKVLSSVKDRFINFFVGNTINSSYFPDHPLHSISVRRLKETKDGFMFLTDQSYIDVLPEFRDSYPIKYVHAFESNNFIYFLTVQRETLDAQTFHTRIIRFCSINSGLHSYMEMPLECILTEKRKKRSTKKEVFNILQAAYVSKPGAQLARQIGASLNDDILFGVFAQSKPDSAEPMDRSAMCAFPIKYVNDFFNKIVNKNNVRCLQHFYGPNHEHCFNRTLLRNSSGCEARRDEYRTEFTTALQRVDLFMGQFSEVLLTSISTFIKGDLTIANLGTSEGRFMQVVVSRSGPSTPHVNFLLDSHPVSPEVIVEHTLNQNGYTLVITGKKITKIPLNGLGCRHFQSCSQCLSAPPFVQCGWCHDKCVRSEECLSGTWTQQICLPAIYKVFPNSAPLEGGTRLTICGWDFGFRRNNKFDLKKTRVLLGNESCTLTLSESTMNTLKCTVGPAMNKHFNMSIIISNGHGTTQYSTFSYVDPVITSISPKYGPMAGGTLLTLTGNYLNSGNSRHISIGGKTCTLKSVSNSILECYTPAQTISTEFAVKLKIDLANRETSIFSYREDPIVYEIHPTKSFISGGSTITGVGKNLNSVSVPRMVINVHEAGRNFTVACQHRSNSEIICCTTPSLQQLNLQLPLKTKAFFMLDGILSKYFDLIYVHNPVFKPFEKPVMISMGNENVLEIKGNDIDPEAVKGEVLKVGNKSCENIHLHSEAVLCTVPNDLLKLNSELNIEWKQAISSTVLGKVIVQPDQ
# B1: chimeric one-armed 5D5 antibody (Fab arm from the murine parent 5D5 antibody fused to a human Fc region) (antibody, V domains shown)
# VH: QVQLQQSGPELVRPGASVKMSCRASGYTFTSYWLHWVKQRPGQGLEWIGMIDPSNSDTRFNPNFKDKATLNVDRSSNTAYMLLSSLTSADSAVYYCATYGSYVSPLDYWGQGTSVTVSS
# VL: DIMMSQSPSSLTVSVGEKVTVSCKSSQSLLYTSSQKNYLAWYQQKPGQSPKLLIYWASTRESGVPDRFTGSGSGTDFTLTITSVKADDLAVYYCQQYYAYPWTFGGGTKLEIKR
# Biological target: cMet-Ig protein (biotinylated) (UniProt P08581)
# Assay: electrochemiluminescent competition assay: antibody against HGF-Ruthenium Tag binding to cMet-Ig-biotin
binder,measurement,value
B1,binding,binds
